This assay deals with plasmin (Homo sapiens (Human)) (UniProt P00747). As to the kind of experiment: summary of Example 12.

Sequences of proteins named here, by UniProt entry; tags and fusion partners are left off. A change or cut given only in a name is not applied to a line headed by its entry.
UniProt P00747: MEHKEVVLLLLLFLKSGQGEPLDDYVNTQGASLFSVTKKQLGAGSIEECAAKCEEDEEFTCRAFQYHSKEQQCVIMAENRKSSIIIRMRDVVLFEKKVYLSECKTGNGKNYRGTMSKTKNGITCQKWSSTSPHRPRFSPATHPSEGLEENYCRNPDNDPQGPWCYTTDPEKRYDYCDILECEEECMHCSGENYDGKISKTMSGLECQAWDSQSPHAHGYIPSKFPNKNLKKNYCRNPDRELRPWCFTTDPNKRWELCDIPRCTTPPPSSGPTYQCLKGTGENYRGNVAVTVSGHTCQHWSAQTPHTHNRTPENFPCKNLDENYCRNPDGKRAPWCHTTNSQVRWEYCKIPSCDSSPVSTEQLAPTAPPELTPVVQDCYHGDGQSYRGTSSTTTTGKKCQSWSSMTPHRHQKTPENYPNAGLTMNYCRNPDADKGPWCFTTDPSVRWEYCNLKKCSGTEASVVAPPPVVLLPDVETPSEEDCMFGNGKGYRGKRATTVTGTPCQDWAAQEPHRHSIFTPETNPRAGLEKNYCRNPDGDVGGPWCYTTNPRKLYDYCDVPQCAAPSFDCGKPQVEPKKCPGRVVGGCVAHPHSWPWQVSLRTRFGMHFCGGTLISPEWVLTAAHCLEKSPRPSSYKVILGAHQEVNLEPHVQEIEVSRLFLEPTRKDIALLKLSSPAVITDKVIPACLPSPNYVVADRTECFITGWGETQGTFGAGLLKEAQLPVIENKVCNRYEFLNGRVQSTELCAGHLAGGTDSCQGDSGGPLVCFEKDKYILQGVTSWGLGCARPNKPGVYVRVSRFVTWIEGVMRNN
UniProt P60902: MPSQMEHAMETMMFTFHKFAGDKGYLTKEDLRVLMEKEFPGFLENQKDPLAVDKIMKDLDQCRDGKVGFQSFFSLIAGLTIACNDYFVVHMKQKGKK

These are yes or no findings as the source states them, for the method shown. Some binding calls cover weakened binding; strength is not graded here.

Take “p11 (S100A10) (from UniProt P60902 2-97) (receptor)”: the binding entry is recorded as “binds”.

These data come from US20070231899A1 (published 2007).
